From the supplement of paper PMC11006884
The list shows a part of the results, in another mix than the full data. Single values of this set are uncertain.

Sequences of proteins named here, by UniProt entry; tags and fusion partners are left off. A change or cut given only in a name is not applied to a line headed by its entry.
UniProt Q7Z2T5: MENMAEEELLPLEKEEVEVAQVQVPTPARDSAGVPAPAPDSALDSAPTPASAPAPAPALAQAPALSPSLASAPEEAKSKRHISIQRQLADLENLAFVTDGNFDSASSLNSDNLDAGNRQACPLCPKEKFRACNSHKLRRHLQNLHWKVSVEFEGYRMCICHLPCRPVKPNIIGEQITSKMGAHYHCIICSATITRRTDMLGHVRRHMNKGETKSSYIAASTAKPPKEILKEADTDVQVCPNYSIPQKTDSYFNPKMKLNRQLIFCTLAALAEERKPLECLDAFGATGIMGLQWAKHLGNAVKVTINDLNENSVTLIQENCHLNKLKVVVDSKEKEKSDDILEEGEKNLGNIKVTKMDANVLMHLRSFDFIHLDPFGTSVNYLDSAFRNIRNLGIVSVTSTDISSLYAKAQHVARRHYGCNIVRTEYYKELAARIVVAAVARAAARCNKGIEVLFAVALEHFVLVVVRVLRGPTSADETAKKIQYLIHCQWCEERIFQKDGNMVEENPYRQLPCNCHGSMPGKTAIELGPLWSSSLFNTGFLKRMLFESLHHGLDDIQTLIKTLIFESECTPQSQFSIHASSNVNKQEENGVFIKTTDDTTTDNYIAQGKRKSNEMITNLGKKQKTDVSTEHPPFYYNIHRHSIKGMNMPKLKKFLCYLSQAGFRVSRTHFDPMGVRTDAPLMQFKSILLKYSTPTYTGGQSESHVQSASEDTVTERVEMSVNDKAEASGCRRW
UniProt Q8IZ21: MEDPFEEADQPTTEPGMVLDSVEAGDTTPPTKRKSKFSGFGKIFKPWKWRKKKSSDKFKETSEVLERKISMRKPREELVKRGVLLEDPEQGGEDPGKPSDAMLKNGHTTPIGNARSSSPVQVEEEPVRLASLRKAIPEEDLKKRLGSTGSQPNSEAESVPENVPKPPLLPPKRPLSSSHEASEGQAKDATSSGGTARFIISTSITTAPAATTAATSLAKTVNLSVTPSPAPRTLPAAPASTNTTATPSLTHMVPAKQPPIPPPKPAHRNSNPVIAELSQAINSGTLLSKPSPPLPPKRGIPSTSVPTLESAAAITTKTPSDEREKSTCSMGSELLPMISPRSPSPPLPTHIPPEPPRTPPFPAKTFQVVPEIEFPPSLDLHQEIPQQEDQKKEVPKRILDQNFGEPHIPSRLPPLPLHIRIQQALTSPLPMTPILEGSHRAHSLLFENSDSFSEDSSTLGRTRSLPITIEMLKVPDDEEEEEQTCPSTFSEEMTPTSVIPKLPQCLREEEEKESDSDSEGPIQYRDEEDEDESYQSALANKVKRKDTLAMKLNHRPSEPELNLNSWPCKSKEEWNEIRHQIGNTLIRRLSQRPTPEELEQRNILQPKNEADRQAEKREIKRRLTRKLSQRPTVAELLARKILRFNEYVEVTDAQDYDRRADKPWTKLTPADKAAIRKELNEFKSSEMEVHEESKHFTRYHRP
UniProt Q7L2E3: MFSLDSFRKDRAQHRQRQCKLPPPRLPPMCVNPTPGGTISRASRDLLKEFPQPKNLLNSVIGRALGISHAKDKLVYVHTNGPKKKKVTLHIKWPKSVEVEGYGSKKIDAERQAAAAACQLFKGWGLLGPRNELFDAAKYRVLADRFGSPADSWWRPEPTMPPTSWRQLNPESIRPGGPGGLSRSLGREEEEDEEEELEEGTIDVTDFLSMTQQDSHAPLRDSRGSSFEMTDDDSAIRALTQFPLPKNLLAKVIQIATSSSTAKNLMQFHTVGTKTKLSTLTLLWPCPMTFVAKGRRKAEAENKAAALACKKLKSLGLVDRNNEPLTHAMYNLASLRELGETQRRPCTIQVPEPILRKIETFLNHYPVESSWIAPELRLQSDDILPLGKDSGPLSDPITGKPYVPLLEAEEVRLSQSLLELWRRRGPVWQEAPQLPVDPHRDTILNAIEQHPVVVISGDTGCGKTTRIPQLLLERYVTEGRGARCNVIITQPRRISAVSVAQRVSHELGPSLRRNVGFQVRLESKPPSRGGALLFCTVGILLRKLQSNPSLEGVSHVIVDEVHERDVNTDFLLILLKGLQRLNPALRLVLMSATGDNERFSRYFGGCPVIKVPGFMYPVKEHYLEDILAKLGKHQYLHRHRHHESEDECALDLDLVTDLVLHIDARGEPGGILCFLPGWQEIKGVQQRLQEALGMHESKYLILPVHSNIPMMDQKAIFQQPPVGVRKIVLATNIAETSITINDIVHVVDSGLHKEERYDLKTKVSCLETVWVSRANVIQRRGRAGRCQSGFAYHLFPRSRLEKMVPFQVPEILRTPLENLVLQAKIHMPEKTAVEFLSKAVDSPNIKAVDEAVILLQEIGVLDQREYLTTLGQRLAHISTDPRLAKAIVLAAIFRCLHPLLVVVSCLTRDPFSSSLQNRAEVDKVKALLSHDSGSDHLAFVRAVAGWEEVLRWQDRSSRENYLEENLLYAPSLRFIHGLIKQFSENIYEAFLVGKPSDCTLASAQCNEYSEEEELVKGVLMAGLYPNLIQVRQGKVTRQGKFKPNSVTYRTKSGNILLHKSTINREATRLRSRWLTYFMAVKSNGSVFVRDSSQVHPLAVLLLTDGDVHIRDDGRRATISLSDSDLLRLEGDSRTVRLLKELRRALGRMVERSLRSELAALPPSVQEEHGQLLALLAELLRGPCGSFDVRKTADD
UniProt Q8IV38: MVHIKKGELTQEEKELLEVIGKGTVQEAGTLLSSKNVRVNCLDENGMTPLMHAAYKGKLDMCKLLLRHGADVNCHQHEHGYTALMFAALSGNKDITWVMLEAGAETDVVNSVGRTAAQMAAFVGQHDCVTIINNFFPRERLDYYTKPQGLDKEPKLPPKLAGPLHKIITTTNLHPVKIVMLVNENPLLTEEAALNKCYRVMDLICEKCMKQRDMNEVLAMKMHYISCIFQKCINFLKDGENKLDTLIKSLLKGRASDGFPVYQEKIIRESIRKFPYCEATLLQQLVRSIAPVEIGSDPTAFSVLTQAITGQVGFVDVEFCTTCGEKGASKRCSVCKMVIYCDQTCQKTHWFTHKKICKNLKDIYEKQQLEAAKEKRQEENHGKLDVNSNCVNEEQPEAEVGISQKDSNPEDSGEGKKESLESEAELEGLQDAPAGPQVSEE
UniProt Q8IWS0: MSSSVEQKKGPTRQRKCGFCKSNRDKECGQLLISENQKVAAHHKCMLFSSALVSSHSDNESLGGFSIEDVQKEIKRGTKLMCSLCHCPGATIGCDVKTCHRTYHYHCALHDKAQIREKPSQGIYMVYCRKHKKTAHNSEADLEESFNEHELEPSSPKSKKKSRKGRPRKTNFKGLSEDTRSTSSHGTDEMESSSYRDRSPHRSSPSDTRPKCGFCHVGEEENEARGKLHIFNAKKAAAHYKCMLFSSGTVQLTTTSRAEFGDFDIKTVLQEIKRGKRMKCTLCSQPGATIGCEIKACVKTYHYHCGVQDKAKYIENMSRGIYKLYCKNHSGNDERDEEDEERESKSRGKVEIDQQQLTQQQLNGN
UniProt Q7RTV0, whole entry, looked up: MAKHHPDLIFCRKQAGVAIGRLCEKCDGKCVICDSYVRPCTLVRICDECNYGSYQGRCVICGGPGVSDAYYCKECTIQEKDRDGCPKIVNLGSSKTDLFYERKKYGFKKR
UniProt Q8IX12: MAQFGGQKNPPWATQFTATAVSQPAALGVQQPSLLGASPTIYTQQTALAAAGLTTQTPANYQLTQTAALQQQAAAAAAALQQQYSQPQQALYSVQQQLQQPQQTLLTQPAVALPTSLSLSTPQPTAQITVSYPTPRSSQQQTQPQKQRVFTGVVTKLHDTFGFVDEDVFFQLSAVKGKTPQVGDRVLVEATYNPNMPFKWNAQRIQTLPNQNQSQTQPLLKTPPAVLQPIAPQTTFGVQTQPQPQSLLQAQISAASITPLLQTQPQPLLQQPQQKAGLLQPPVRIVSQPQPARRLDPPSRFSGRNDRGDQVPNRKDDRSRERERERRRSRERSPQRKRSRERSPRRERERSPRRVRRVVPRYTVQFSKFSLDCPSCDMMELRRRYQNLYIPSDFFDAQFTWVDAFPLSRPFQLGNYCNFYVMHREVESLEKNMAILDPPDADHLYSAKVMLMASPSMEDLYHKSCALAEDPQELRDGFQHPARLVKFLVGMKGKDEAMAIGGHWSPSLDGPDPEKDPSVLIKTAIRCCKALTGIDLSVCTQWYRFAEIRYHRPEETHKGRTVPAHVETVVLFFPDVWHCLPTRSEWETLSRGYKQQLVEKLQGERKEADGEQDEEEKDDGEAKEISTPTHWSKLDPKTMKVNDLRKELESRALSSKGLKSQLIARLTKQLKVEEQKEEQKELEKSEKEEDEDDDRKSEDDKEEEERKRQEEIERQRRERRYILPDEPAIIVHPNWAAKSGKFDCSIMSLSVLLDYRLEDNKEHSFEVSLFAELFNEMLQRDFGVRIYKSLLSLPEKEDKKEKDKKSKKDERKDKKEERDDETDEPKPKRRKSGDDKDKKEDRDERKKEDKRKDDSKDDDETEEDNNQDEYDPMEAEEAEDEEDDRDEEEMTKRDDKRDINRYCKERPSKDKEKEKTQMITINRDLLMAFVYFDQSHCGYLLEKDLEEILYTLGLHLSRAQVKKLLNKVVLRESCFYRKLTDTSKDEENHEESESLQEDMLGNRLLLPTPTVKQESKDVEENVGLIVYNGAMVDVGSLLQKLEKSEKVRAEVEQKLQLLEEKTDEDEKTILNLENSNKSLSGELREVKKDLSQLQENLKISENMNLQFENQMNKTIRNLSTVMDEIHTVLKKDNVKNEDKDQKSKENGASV
UniProt Q7Z7K6: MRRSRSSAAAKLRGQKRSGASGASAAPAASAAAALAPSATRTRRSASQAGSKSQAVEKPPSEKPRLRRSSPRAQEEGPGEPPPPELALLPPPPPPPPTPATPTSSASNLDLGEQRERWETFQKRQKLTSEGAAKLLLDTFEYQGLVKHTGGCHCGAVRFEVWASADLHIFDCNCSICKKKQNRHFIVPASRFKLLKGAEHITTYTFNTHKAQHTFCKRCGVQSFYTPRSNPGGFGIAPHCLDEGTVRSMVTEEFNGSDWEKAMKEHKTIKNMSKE
UniProt Q7Z3T8: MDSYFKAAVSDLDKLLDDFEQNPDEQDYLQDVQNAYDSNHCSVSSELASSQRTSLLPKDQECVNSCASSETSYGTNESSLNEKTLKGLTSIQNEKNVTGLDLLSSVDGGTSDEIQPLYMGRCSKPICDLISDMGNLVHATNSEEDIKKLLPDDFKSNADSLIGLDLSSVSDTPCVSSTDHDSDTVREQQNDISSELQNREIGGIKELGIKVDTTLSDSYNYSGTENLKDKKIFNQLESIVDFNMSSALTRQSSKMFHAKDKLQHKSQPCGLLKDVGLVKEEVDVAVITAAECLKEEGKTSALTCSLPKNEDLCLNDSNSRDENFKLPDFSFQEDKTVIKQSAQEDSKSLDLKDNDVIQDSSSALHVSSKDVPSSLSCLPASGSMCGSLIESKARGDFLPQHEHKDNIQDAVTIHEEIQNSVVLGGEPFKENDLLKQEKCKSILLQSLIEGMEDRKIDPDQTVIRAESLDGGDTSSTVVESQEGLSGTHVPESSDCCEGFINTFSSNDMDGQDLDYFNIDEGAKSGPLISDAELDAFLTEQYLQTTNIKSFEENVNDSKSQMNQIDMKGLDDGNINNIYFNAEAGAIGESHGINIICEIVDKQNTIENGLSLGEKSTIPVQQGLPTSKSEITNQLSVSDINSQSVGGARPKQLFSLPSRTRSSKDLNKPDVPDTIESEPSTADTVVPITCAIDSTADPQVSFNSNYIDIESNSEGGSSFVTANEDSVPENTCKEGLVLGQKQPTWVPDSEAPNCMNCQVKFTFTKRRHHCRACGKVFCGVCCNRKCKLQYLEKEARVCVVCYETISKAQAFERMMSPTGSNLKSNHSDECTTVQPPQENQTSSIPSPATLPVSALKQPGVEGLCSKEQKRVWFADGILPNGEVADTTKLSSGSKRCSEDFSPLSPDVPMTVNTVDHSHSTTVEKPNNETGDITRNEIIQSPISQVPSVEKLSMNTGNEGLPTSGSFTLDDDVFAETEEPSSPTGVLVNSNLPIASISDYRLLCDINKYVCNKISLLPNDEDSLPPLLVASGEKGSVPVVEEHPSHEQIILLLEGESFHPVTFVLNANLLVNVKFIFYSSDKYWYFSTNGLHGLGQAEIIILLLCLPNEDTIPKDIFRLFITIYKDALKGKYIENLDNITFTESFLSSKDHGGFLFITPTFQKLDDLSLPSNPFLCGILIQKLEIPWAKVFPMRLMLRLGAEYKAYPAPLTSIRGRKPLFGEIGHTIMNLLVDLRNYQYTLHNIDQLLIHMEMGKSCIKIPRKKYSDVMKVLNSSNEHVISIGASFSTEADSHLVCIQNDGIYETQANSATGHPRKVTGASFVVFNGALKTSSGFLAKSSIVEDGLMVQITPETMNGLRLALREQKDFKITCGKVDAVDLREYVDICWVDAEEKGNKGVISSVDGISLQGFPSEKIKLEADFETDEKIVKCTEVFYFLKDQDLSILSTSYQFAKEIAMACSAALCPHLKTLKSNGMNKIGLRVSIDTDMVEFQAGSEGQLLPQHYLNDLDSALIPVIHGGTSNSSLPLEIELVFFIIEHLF

compound: COC(=O)/C=C/c1ccccc1 [methyl cinnamate]; assay: log2 ratio of iodoacetamide-alkyne labeling of the cysteine site, DMSO over compound (competition); higher = stronger covalent engagement of the cysteine by the compound, active = 1 or more; conditions: 500 µM; treatment time 1 h; system: HEK293T cell lysate
How it was run: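 HEK293T lysate (2 mg/mL) was treated with DMSO or electrophile (500 µM, 1 h, ambient temperature), then iodoacetamide alkyne (1 h), clicked to sCIP-TMT reagents, pooled, trypsin-digested overnight at 37 °C, streptavidin-enriched and acid-eluted. Peptides were run on Orbitrap Eclipse LC-MS/MS with FAIMS and quantified in FragPipe. The log2 competition ratio per cysteine is mean control-channel over mean compound-channel reporter intensity. Duplicate channels and three replicates were used, and cysteines quantified in only one replicate were excluded.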

| Target | log2 ratio of iodoacetamide-alkyne labeling |
| --- | --- |
| PARG C397 (UniProt Q86W56) | inactive: 0.184 |
| UniProt Q7Z2T5_C730 | inactive: 0.335 |
| PHACTR4 C328 (UniProt Q8IZ21) | inactive: 0.184 |
| PARG C603 (UniProt Q86W56) | inactive: -0.0134 |
| ANKLE2 C674 (UniProt Q86XL3) | inactive: -0.228 |
| SETD3 C36 (UniProt Q86TU7) | inactive: 0.224 |
| DHX30 C484 (UniProt Q7L2E3) | inactive: 0.221 |
| ANKMY2 C277 (UniProt Q8IV38) | inactive: 0.0171 |
| PHF6 C128 (UniProt Q8IWS0) | inactive: 0.0252 |
| Q8F0_C443 | inactive: 0.0691 |
| IRF2BP1 C280 (UniProt Q8IU81) | inactive: 0.14 |
| CEP97 C484 (UniProt Q8IW35) | inactive: -0.323 |
| UniProt Q7RTV0_C75 | inactive: -0.133 |
| THNSL1 C82 (UniProt Q8IYQ7) | inactive: 0.245 |
| WDFY1 C290 (UniProt Q8IWB7) | inactive: 0.188 |
| IRF2BP1 C36 (UniProt Q8IU81) | inactive: 0.00936 |
| CCAR1 C465 (UniProt Q8IX12) | inactive: 0.261 |
| MEPCE C54 (UniProt Q7L2J0) | inactive: 0.274 |
| NUFIP2 C234 (UniProt Q7Z417) | inactive: 0.0578 |

| Target | log2 ratio of iodoacetamide-alkyne labeling |
| --- | --- |
| IRF2BP2 C65 (UniProt Q7Z5L9) | inactive: 0.127 |
| WDR75 C397 (UniProt Q8IWA0) | inactive: 0.178 |
| UniProt Q7Z434_C133 | inactive: 0.32 |
| ALDH16A1 C28 (UniProt Q8IZ83) | inactive: 0.0743 |
| ERMP1 C43 (UniProt Q7Z2K6) | inactive: 0.203 |
| UniProt Q86Y56_C173 | inactive: 0.367 |
| UniProt Q86YR5_C497 | inactive: 0.294 |
| CENPV C240 (UniProt Q7Z7K6) | inactive: -0.000827 |
| CAND1 C954 (UniProt Q86VP6) | inactive: -0.0574 |
| ZFYVE16 C174 (UniProt Q7Z3T8) | inactive: 0.114 |
| UniProt Q8IX01_C447 | inactive: 0.00033 |
| HUWE1 C3361 (UniProt Q7Z6Z7) | inactive: 0.47 |
| CAND1 C1153 (UniProt Q86VP6) | inactive: 0.304 |
| SUPT6H C575 (UniProt Q7KZ85) | inactive: -0.221 |
| MEPCE C324 (UniProt Q7L2J0) | inactive: 0.141 |
| UniProt Q86Y56_C420 | inactive: 0.0712 |
| SH3RF1 C658 (UniProt Q7Z6J0) | inactive: 0.00212 |
| IRF2BP2 C19 (UniProt Q7Z5L9) | inactive: 0.12 |

Given with tabs: part of the list above
Target	log2 ratio of iodoacetamide-alkyne labeling
ALDH16A1 C28 (UniProt Q8IZ83)	inactive: 0.0743
UniProt Q8IX01_C447	inactive: 0.00033
